Test results reported in publication PMC8366450.

Protein sequences, listed by entry. Tags and fused reporters are not part of them. Lines headed by an entry give the natural chain unless they say otherwise; changes in a name come on top.
UniProt Q9H2A7: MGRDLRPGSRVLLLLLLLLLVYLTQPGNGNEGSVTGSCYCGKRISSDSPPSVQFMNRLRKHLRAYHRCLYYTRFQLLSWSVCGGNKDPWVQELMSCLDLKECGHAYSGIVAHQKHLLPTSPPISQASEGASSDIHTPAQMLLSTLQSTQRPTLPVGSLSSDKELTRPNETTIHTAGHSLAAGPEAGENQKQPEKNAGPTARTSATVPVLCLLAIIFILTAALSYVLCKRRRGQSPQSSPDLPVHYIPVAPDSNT

Biological target: C-X-C motif chemokine ligand 16 (human) (UniProt Q9H2A7)
Assay: peptide or protein array; HuProt v3.1 human proteome microarray; >20 000 human recombinant proteins immobilised on the array; purified His-V5-CPPED1 applied; both purified

binding: binds
Substance: human recombinant CPPED1 with N-terminal His-V5 dual tag (from UniProt Q9BRF8 1-314) (enzyme)

These are yes or no findings as the source states them, for the method shown. Binding calls can cover weak binding; strength is not graded here.
